The other results are listed elsewhere or left out.

Consider 78 molecules from article PMC12040169 (PLOS Biology, 2025).

The subject of this test is T1, CTL2-GFP (C. trachomatis L2/434/Bu, GFP-expressing).
T1 construct: L2/434/Bu, GFP-expressing
Set-up: species or system HeLa; Intracellular C. trachomatis growth in HeLa cells, bulk GFP fluorescence relative to DMSO. Particulars: bulk GFP, single well; 28.5 h, 10 µM; inhibitor.
As to `CC(C)(C)OC(=O)N1CCC(C2OCc3cc(-c4ccc(S(C)(=O)=O)cn4)ccc3O2)CC1` (stereo not drawn) [CBK173326], the “% of control remaining” value is recorded as 93.1168%.

With `CN1C(=O)COc2ccccc2C/C=C/C[C@H]2NCCC[C@H]21` [CBK292156], the “% of control remaining” value was 128.599%.

With `CC(=O)NC(NC(=S)Nc1sc2c(c1C(N)=O)CCCC2)C(Cl)(Cl)Cl` (stereo not drawn) [CBK261054], the “% of control remaining” value was 99.8994%.

For the molecule `CCCn1nc(C)c(-c2cncn2CCn2nc(C)c(C)c2C)c1C` [CBK281444], the “% of control remaining” value is recorded as 119.578%.

For the molecule `CCc1nsc(N2CCC(Oc3cccnc3N(C)C)C2)n1` (stereo not drawn) [CBK304498], the “% of control remaining” value is recorded as 91.7839%.

Take `COc1ccc(C(=O)N2CCC3(CCCN(C(=O)CCSC)C3)C2)cc1OC` (stereo not drawn) [CBK131661]: the “% of control remaining” value stood at 103.526%.

For the molecule `Cc1noc(C)c1C[S+]([O-])c1ccc(Br)cc1` (stereo not drawn) [CBK034195], the “% of control remaining” value stood at 147.032%.

Regarding `CC(C)NC(=O)N[C@H]1CCN2C(=O)c3ccc(Cl)cc3NC(=O)[C@H]12` [CBK289343], the “% of control remaining” value came out at 122.598%.

For `Cc1nccn1CC1(O)CCN(Cc2ccc(F)c(F)c2)CC1` [CBK284955], the “% of control remaining” value is given as 86.8806%.

Regarding `CC1CCCCN1CC(C)(C)NC(=O)c1cc(C2CC2)on1` (stereo not drawn) [CBK281676], the “% of control remaining” value is listed as 130.678%.

With `Cc1nnc(CNC(=O)c2cc(-c3ccc(Cl)cc3)nc3ccccc23)o1` [CBK297717], the “% of control remaining” value is listed as 118.046%.

In the case of `CC(=O)Nc1nc(C(=O)N2CCOC(c3ccc(F)cc3)C2)cs1` (stereo not drawn) [CBK244238], the “% of control remaining” value stood at 96.9661%.

Turning to `COc1ccc(-c2c[nH]c([C@@H]3COCCN3Cc3csnn3)n2)cc1` [CBK289297], the “% of control remaining” value came out at 145.816%.

In the case of `Cc1cn(CC(=O)N2CCCC3(CCN(C(=O)c4cc(F)c(F)cc4F)C3)C2)c(=O)[nH]c1=O` (stereo not drawn) [CBK131561], the “% of control remaining” value is 78.3681%.

In the case of `COc1cccc(C(=O)Nc2ccc(NC(=O)C3CC=CCC3C(=O)O)cc2)c1` (stereo not drawn) [CBK266316], the “% of control remaining” value is 111.765%.

Regarding `O=C(Nc1cc(N2CCCS2(=O)=O)ccc1Cl)c1cc[nH]n1` [CBK306249], the “% of control remaining” value is recorded as 189.49%.

Take `O=C(Cn1cccc2cc(C3CCNCC3)nc1-2)N1CCCCCC1` [CBK284679]: the “% of control remaining” value was 122.426%.

As to `CCc1ccc(-n2cc(-c3ccccn3)nn2)cc1` [CBK113137], the “% of control remaining” value turned out to be 122.963%.

`O=C(CSCc1ccc(Cl)cc1Cl)Nc1cccc(O)c1` [CBK131702]: the “% of control remaining” value is 76.4423%.

`O=S(=O)(Nc1cccc(Cl)c1Cl)c1cccc2nsnc12` [CBK067296]: the “% of control remaining” value is reported as 75.6241%.

Take `Cc1ccc(S(=O)(=O)c2ccc(C)c(S(=O)(=O)NC3CCCCC3)c2)cc1S(=O)(=O)NC1CCCCC1` [CBK261653]: the “% of control remaining” value is 100%.

`COc1cc(OC)nc(Oc2ccccc2C(=O)O)n1` [CBK092218]: the “% of control remaining” value is given as 120.984%.

With `Cc1nn(C)c(C)c1CN1CCN(C(=S)Nc2ccc(S(N)(=O)=O)cc2)CC1` [CBK267030], the “% of control remaining” value was 163.352%.

In the case of `Cc1nn(CC(=O)NC(C)C)c(=O)c2cc3sccc3n12` [CBK284048], the “% of control remaining” value turned out to be 114.478%.

On to `CC1CN(C(=S)Nc2ccc(NC(=S)N3CC(C)OC(C)C3)cc2)CC(C)O1` (stereo not drawn) [CBK004991], for which the “% of control remaining” value was 150.846%.

As to `COc1ccc(C(NC(=O)[C@H]2CCCN2C(=O)NCc2ccccc2C)c2ccccc2C)cn1` (stereo partly drawn) [CBK075051], the “% of control remaining” value amounted to 98.8277%.

Consider `Cc1ccc(NC(=O)c2cnc3scc(C)n3c2=O)cc1C` [CBK287461], for which the “% of control remaining” value amounted to 111.705%.

As to `O=C(c1nccs1)C1CCN(C(=O)Cc2ccc(Cl)cc2)CC1` [CBK284160], the “% of control remaining” value was found to be 98.872%.

Take `O=C(CCn1c(C(F)F)cc2cccnc21)N1CCCC(CO)C1` (stereo not drawn) [CBK284985]: the “% of control remaining” value was 164.256%.

With `CC(C)(CN)CN(Cc1ccncc1)C(=O)Nc1ccc(C(C)(C)C)cc1` [CBK002459C], the “% of control remaining” value is recorded as 100%.

For `CCNC(=O)N(C)c1c(CC)nc2ccc(C(=O)N3CCN(C(C)=O)CC3)cn12` [CBK146362], the “% of control remaining” value amounted to 103.229%.

`O=C(CN1CCOCC1)Nc1sc2c(c1C(=O)Nc1ccc(Br)cc1)CCC2` [CBK265073]: the “% of control remaining” value amounted to 100%.

`O=C(Nc1cccc(-c2nnn[nH]2)c1)c1ccc(Cl)c(Cl)c1` [CBK144713]: the “% of control remaining” value is listed as 117.722%.

Regarding `Cc1noc([C@@H]2C[C@H](NC(=O)Nc3cccc(C#N)c3)CN2C)n1` [CBK288873], the “% of control remaining” value is given as 108.88%.

`CC1(c2[nH]nc(N)c2Cc2c(Cl)cccc2Cl)CC1` [CBK115483T]: the “% of control remaining” value came to 97.0592%.

Turning to `CC1(C)[C@H](Cc2cc(CO)on2)C[C@@H]1NC(=O)C1CCCCC1` [CBK289235], the “% of control remaining” value came out at 119.434%.

Regarding `CC1CC(=O)Nc2ccccc2N1C(=O)Cn1c(=O)cnc2ccccc21` (stereo not drawn) [CBK297116], the “% of control remaining” value came out at 79.5709%.

Consider `O=C(CN1CCN(Cc2ccccc2)CC1)Nc1ccc(C(F)(F)F)cc1Cl` [CBK074781], for which the “% of control remaining” value is recorded as 108.385%.

Turning to `CCOCC1CCN(C(=O)c2ncsc2Nc2ccccc2)C1` (stereo not drawn) [CBK304204], the “% of control remaining” value was determined as 116.821%.

On to `CCCC(=O)N1CCC(c2nc3ccccc3cc2NC(C)=O)CC1` [CBK285258], for which the “% of control remaining” value is 136.853%.

Consider `COc1ccc(Nc2cc(-c3ccsc3)ncn2)cc1OC` [CBK090820], for which the “% of control remaining” value worked out at 188.476%.

Take `Cc1cc(S(=O)(=O)N2CCCC2)ccc1OCC(=O)O` [CBK268289]: the “% of control remaining” value stood at 138.878%.

Turning to `O=C(CCC(=O)c1ccc(F)cc1)Nc1cccnc1` [CBK266901], the “% of control remaining” value is reported as 156.485%.

As for `O=C(NCCN1CCC(O)(c2ccc(F)cc2)CC1)C1CC1` [CBK283164], the “% of control remaining” value turned out to be 129.13%.

Regarding `COc1ccc(C(C)C)cc1-c1cc(Nc2cc(OC)c(OC)c(OC)c2)n2nccc2n1` [CBK037746], the “% of control remaining” value was determined as 111.261%.

On to `CCC1C(=O)N=C(SCC(=O)Nc2ncccn2)NC1=O` (stereo not drawn) [CBK263920], for which the “% of control remaining” value worked out at 100%.

Take `O=C(NC(c1ccc(Cl)cc1)c1ccsc1)C1CCN(CCc2ccc(F)cc2)CC1` (stereo not drawn) [CBK147976]: the “% of control remaining” value amounted to 105.292%.

As to `CC(C)[C@H](CO)Nc1nc(-c2ccc3c(c2)OCO3)cn2ccnc12` [CBK038071], the “% of control remaining” value worked out at 132.766%.

With `CC[C@H]1CN(S(=O)(=O)c2c(C)noc2C)CC[C@H]1CC(=O)Nc1nccs1` [CBK288779], the “% of control remaining” value is 113.684%.

In the case of `COc1ccccc1-c1ccc(C(=O)N(C)CCN(C)C)c(NCC2CC2)n1` [CBK106269], the “% of control remaining” value is on record as 103.084%.

Turning to `Cc1ccc(CN(Cc2cnc(C)n2C)CC2CCCO2)o1` (stereo not drawn) [CBK283291], the “% of control remaining” value came to 145.874%.

In the case of `Cc1cc(C2CCCCCN2C(=O)c2ccc(F)cc2)on1` (stereo not drawn) [CBK285447], the “% of control remaining” value was found to be 115.594%.

`O=C(O)c1ccccc1-c1ccccc1C(=O)Nc1ccc(O)cc1` [CBK286602]: the “% of control remaining” value stood at 146.872%.

As to `COc1cc(NC(=O)NCCc2cccs2)cc(OC)c1OC` [CBK043347], the “% of control remaining” value was found to be 114.359%.

With `Cc1noc(C)c1S(=O)(=O)Nc1ccc2[nH]ncc2c1` [CBK062518], the “% of control remaining” value is recorded as 118.824%.

Take `CC1CCCN(CC(=O)NCc2ccc(OCC(N)=O)cc2)CC1` (stereo not drawn) [CBK305755]: the “% of control remaining” value was determined as 133.175%.

Take `CC(C)OCC(O)Cn1c(N/N=C/c2ccccc2O)nc2c1c(=O)[nH]c(=O)n2C` (stereo not drawn) [CBK139853]: the “% of control remaining” value turned out to be 100.844%.

For `O=C1NC2(CCc3ccccc31)CCN(C(=O)c1ccccn1)C2` (stereo not drawn) [CBK283337], the “% of control remaining” value came to 98.4888%.

`Cc1c(C#N)c2ccc(O)c(CN(C)C)c2n1-c1ccccc1` [CBK094247C]: the “% of control remaining” value came out at 87.3151%.

Regarding `Cc1cc(NC(=O)CN(C)Cc2cnn(-c3ccccc3)c2)on1` [CBK305622], the “% of control remaining” value came out at 118.955%.

For `COCCN(Cc1cnn(C)c1)Cc1cc(O)c2cc(F)ccc2n1` [CBK307359], the “% of control remaining” value was found to be 129.1%.

On to `CCN1CCN(S(=O)(=O)c2cccc([N+](=O)[O-])c2)CC1` [CBK266675], for which the “% of control remaining” value stood at 143.718%.

With `COc1cncc(-c2cncc(N3CCN(CCN(C)C)CC3)n2)c1` [CBK065393], the “% of control remaining” value is 75.6627%.

Regarding `CC1CCN(Cc2csc(NC(=O)CCn3c(-c4cccs4)n[nH]c3=S)n2)CC1` [CBK297892], the “% of control remaining” value was found to be 97.726%.

For the molecule `Cc1c(Cl)cccc1N1CCN(S(=O)(=O)CC23CCC(CC2=O)C3(C)C)CC1` (stereo not drawn) [CBK269257], the “% of control remaining” value is on record as 159.101%.

`NS(=O)(=O)c1ccc(CCNC(=O)COc2ccc(Cl)cc2Cl)cc1` [CBK265694]: the “% of control remaining” value came to 108.804%.

For the molecule `Cc1ccn2c(F)c(C(=O)N3CCCCC3CN3CCOCC3)nc2c1` (stereo not drawn) [CBK307028], the “% of control remaining” value is listed as 156.297%.

In the case of `CS(=O)(=O)c1ccc(-c2ccc3c(c2)C(=O)NC(C2CCN(C(=O)OCc4ccccc4)CC2)O3)cc1` (stereo not drawn) [CBK156087], the “% of control remaining” value is listed as 128.511%.

For `CCCn1ncc(C(=O)N2CCN(CC3CCCN(C)C3)CC2)c1C` (stereo not drawn) [CBK307122], the “% of control remaining” value is recorded as 114.353%.

Regarding `COC(=O)c1ccc(CN2CCN(CCN3C(=O)c4cccc5cccc(c45)C3=O)CC2)cc1` [CBK074518], the “% of control remaining” value was found to be 126.742%.

As for `O=C(O)C(Cc1c[nH]c2ccccc12)N1C(=O)C2C3c4ccccc4C(c4ccccc43)C2C1=O` (stereo not drawn) [CBK265377], the “% of control remaining” value was determined as 100%.

As to `CN(C)C(=O)CC(O)c1cc2n(n1)CCN(Cc1cccs1)C2` (stereo not drawn) [CBK306620], the “% of control remaining” value is 95.8879%.

With `OC(c1ccncc1)C(O)c1ccncc1` (stereo not drawn) [CBK024254], the “% of control remaining” value is on record as 103.465%.

In the case of `Nc1ccc(-c2nc(NC(=O)c3cccs3)cnc2-c2ccc(F)cc2)cc1` [CBK037597], the “% of control remaining” value worked out at 202.275%.

For the molecule `Cc1ccccc1Nc1nc(N)nc(CN(CCC#N)CC2CCC2)n1` [CBK305308], the “% of control remaining” value is listed as 130.076%.

Consider `COc1ccc2sc(N(Cc3cccnc3)C(=O)C3COc4ccccc4O3)nc2c1` (stereo not drawn) [CBK294424], for which the “% of control remaining” value is 162.215%.

With `Cn1cccc1CNCCN1CCOCC1` [CBK278187C], the “% of control remaining” value amounted to 125.089%.

On to `COc1ccc(-c2cncc(N3CCN(c4cccc5[nH]ccc45)CC3)n2)cc1` [CBK066087], for which the “% of control remaining” value came out at 125.874%.
